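A panel of P. falciparum strains inside erythrocytes is exposed to compounds for three days, then a DNA-binding dye reports the amount of parasite DNA.
Each compound was titrated across a series from about 0.000037 to 29 µM.
The number is the fitted AC50, the concentration giving a half-maximal change in signal; a lower value means higher potency, whether the curve shows a decrease or an increase.
Calls follow the curve class and fit quality: every row here is inconclusive, covering signal-raising curves and weak, poorly fitted, partial or highest-dose-only inhibition curves.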

Values are in nM.
Every entry below has the call inconclusive.
Only part of the assay is shown, chiefly results filed as inconclusive.
A potency from a partial, single-point or poor curve is only a rough figure.

compound	condition	fitted potency (nM)	curve
CC(C)NCC(O)c1ccccc1Cl (stereo unspecified)	CP325	13459	inhibitor, single point
CC(C)NCC(O)c1ccccc1Cl (stereo unspecified)	JCK	10000	inhibitor, single point
CC(C)NCC(O)c1ccccc1Cl (stereo unspecified)	HB3	7943	inhibitor, partial curve
CC(C)NCC(O)c1ccccc1Cl (stereo unspecified)	CP256	10000	inhibitor, partial curve
CC(C)NCC(O)c1ccccc1Cl (stereo unspecified)	CP265	10000	inhibitor, single point
CC(C)NCC(O)c1ccccc1Cl (stereo unspecified)	CP203	11995	inhibitor, partial curve, poor fit
CC(C)NCC(O)c1ccccc1Cl (stereo unspecified)	CP194	19011	inhibitor, single point
CC(C)NCC(O)c1ccccc1Cl (stereo unspecified)	CP252	11220	inhibitor, single point
CC(C)NCC(O)c1ccccc1Cl (stereo unspecified)	ATS189	8912	inhibitor, partial curve, poor fit
CC(C)NCC(O)c1ccccc1Cl (stereo unspecified)	C2A	11220	inhibitor, single point
CC(C)NCC(O)c1ccccc1Cl (stereo unspecified)	PC26	15101	inhibitor, single point
CC(C)NCC(O)c1ccccc1Cl (stereo unspecified)	CP335	10690	inhibitor, partial curve, poor fit
CC(C)NCC(O)c1ccccc1Cl (stereo unspecified)	CP269	10690	inhibitor, partial curve
CC(C)NCC(O)c1ccccc1Cl (stereo unspecified)	CP191	12589	inhibitor, single point
CC(C)NCC(O)c1ccccc1Cl (stereo unspecified)	DIV30	952.8	inhibitor, partial curve, poor fit
CC(C)NCC(O)c1ccccc1Cl (stereo unspecified)	CP192	15101	inhibitor, single point
CC(C)NCC(O)c1ccccc1Cl (stereo unspecified)	CP211	11995	inhibitor, single point
CC(C)NCC(O)c1ccccc1Cl (stereo unspecified)	CP291	13459	inhibitor, partial curve
CCCC(C(=O)OCCN(CC)CC)(c1ccccc1)c1ccccc1	CP325	19011	inhibitor, single point
CCCC(C(=O)OCCN(CC)CC)(c1ccccc1)c1ccccc1	CP268	13459	inhibitor, single point
CCCC(C(=O)OCCN(CC)CC)(c1ccccc1)c1ccccc1	CP305	15101	inhibitor, single point
CCCC(C(=O)OCCN(CC)CC)(c1ccccc1)c1ccccc1	CP260	11220	inhibitor, single point
CCCC(C(=O)OCCN(CC)CC)(c1ccccc1)c1ccccc1	ATS189	11220	inhibitor, single point
CCCC(C(=O)OCCN(CC)CC)(c1ccccc1)c1ccccc1	ATS95	11220	inhibitor, single point
CCCC(C(=O)OCCN(CC)CC)(c1ccccc1)c1ccccc1	JCK	11220	inhibitor, single point
CCCC(C(=O)OCCN(CC)CC)(c1ccccc1)c1ccccc1	CP256	15848	inhibitor, single point
CCCC(C(=O)OCCN(CC)CC)(c1ccccc1)c1ccccc1	CP191	12589	inhibitor, single point
CCCC(C(=O)OCCN(CC)CC)(c1ccccc1)c1ccccc1	CP211	11995	inhibitor, single point
CCCC(C(=O)OCCN(CC)CC)(c1ccccc1)c1ccccc1	C2A	11220	inhibitor, single point
CCCC(C(=O)OCCN(CC)CC)(c1ccccc1)c1ccccc1	CP250	11220	inhibitor, single point

Repeated from the top, 2 entries:

compound	condition	fitted potency (nM)	curve
CC(C)NCC(O)c1ccccc1Cl (stereo unspecified)	CP325	13459	inhibitor, single point
CC(C)NCC(O)c1ccccc1Cl (stereo unspecified)	JCK	10000	inhibitor, single point

Data taken from PubChem BioAssay AID504749, deposited by NCATS (2011).